This note sets out measurements from patent publication US20100130423A1.

No constants are given. Whether binding was seen depends on the method and setting. Binding seen in cells or lysates may run through a third protein. Some binding calls cover weakened binding; strength is not graded here.

Assay [1] concerns the target Janus kinase 2, wild type (JAK2 WT), O60674. Kind of assay: co-immunoprecipitation with JAK2 antibody, Western blot with LnK antibody (legend of FIG. 4A). The settings on record: remark: other sources report otherwise.
Assay [2] has the same target. Kind of assay: co-immunoprecipitation with JAK2 antibody from 293T lysates, Western blot with LnK antibody. The conditions noted are these: remark: other sources report otherwise.

B1: adaptor protein LnK, wild type, Q9UQQ2 1-575 (protein, UniProt Q9UQQ2 1-575, looked up)
chain: MNGPALQPSSPSSAPSASPAAAPRGWSEFCELHAVAAARELARQYWLFAREHPQHAPLRAELVSLQFTDLFQRYFCREVRDGRAPGRDYRDTGRGPPAKAEASPEPGPGPAAPGLPKARSSEELAPPRPPGPCSFQHFRRSLRHIFRRRSAGELPAAHTAAAPGTPGEAAETPARPGLAKKFLPWSLAREPPPEALKEAVLRYSLADEASMDSGARWQRGRLALRRAPGPDGPDRVLELFDPPKSSRPKLQAACSSIQEVRWCTRLEMPDNLYTFVLKVKDRTDIIFEVGDEQQLNSWMAELSECTGRGLESTEAEMHIPSALEPSTSSSPRGSTDSLNQGASPGGLLDPACQKTDHFLSCYPWFHGPISRVKAAQLVQLQGPDAHGVFLVRQSETRRGEYVLTFNFQGIAKHLRLSLTERGQCRVQHLHFPSVVDMLHHFQRSPIPLECGAACDVRLSSYVVVVSQPPGSCNTVLFPFSLPHWDSESLPHWGSELGLPHLSSSGCPRGLSPEGLPGRSSPPEQIFHLVPSPEELANSLQHLEHEPVNRARDSDYEMDSSSRSHLRAIDNQYTPL
As to B1, the binding result in assay [1] and in assay [2] was “binds” each time.
